Our source for the T/C and survivor count values is PubChem BioAssay AID248 (DTP/NCI, 2004).

This test deals with L1210 leukemia ip in BDF1 mice, survival T/C. As to the kind of experiment: NCI In Vivo Anticancer Drug Screen. Data for tumor model L1210 Leukemia (intraperitoneal) in B6D2F1 (BDF1) mice. The note with it: T/C endpoint: mean survival time, higher T/C = longer survival.
Setting [1] is: dose: 100.0 mg/kg/injection, schedule: Q04DX003 (ip), vehicle: Klucel (hydroxypropylcellulose) (HPC).
The mark [2] stands for this setting: dose: 200.0 mg/kg/injection, schedule: Q04DX003 (ip), vehicle: Klucel (hydroxypropylcellulose) (HPC).
The mark [3] stands for this setting: dose: 400.0 mg/kg/injection, schedule: Q04DX003 (ip), vehicle: Klucel (hydroxypropylcellulose) (HPC).
Where [4] appears, read: dose: 25.0 mg/kg/injection, schedule: Q04DX003 (ip), vehicle: saline.
The mark [5] stands for this setting: dose: 50.0 mg/kg/injection, schedule: Q04DX003 (ip), vehicle: saline.
Setting [6] is: dose: 50.0 mg/kg/injection, schedule: Q01DX001 (ip), vehicle: saline.
The mark [7] stands for this setting: dose: 100.0 mg/kg/injection, schedule: Q01DX001 (ip), vehicle: saline.
Where [8] appears, read: dose: 100.0 mg/kg/injection, schedule: Q04DX003 (ip), vehicle: saline.
Setting [9] is: dose: 200.0 mg/kg/injection, schedule: Q01DX001 (ip), vehicle: saline.
[10] abbreviates: dose: 400.0 mg/kg/injection, schedule: Q01DX001 (ip), vehicle: saline.

Structures are written as SMILES. The list is a part of this screen's results and no random one: its compounds were picked by chemical class. Not every dose and run of a compound is shown. T/C: endpoint of the treated group in % of that of the vehicle group. Some entries give survivors of the animals treated and no T/C: the source holds a T/C of zero for them, seemingly a mark for toxic or unscored doses. Some doses without a T/C left all or most animals alive at the check, yet need not have been tolerated: the source hardly ever lists a survival T/C far under the control, and the zero likely stands for such cases as well. Counts of survivors are from the toxicity check (mostly the fifth day) where no day follows; animals may have died later. Schedule codes are those of the source, taken here to give the interval after Q, in days (D) or hours (H), and the number of doses after X. For survival time, the PubChem record calls one and a half times the control and up active, and a quarter to a half above the control has no call in these data; cut-offs in other NCI protocols can differ. Some schedule codes hold Z or #, which are not explained here. Some T/C values are marked as having no survivor count here; that says nothing about deaths at the dose. Some T/C values are followed by the survivors on the day toxicity was checked, most often the fifth; where neither a count nor a note follows, no animal had died by that day.

As to `CCc1c(C)c([N+](=O)[O-])c(C)c([N+](=O)[O-])c1[N+](=O)[O-]`, the T/C reads like this: (dose: 100.0 mg/kg/injection, schedule: Q01DX009 (ip), vehicle: Klucel (hydroxypropylcellulose) (HPC)) 93 % of control [survivor count not shown]; under setting [1], 98 % of control [survivor count not shown]; (dose: 200.0 mg/kg/injection, schedule: Q01DX009 (ip), vehicle: Klucel (hydroxypropylcellulose) (HPC)) 98 % of control [survivor count not shown]; under setting [2], 93 % of control [survivor count not shown]; (dose: 400.0 mg/kg/injection, schedule: Q01DX009 (ip), vehicle: Klucel (hydroxypropylcellulose) (HPC)) 104 % of control [survivor count not shown]; under setting [3], 100 % of control [survivor count not shown].

As for `ClP1(Cl)=NP(Cl)(Cl)=NP(Cl)(Cl)=N1`, the T/C (dose: 2.5 mg/kg/injection, schedule: Q01DX009 (ip), vehicle: Klucel (hydroxypropylcellulose) (HPC)) is 103 % of control; the T/C (dose: 5.0 mg/kg/injection, schedule: Q01DX009 (ip), vehicle: Klucel (hydroxypropylcellulose) (HPC)) is 97 % of control; the T/C (dose: 10.0 mg/kg/injection, schedule: Q01DX009 (ip), vehicle: Klucel (hydroxypropylcellulose) (HPC)) is 89 % of control; the T/C (dose: 12.5 mg/kg/injection, schedule: Q04DX003 (ip), vehicle: saline) was 101 % of control; the T/C under setting [4] was 101 % of control; the T/C under setting [5] was 93 % of control. Also, the survivor count reads like this: (dose: 100.0 mg/kg/injection, schedule: Q04DX002 (ip), vehicle: Klucel (hydroxypropylcellulose) (HPC)) 2 of 3; under setting [1], 0 of 3; (dose: 200.0 mg/kg/injection, schedule: Q04DX002 (ip), vehicle: Klucel (hydroxypropylcellulose) (HPC)) 1 of 3; under setting [2], 1 of 3; (dose: 400.0 mg/kg/injection, schedule: Q04DX002 (ip), vehicle: Klucel (hydroxypropylcellulose) (HPC)) 0 of 3; under setting [3], 0 of 3.

Take `O=C(O)c1c([N+](=O)[O-])cc([N+](=O)[O-])c(-c2c([N+](=O)[O-])cc([N+](=O)[O-])c(C(=O)O)c2[N+](=O)[O-])c1[N+](=O)[O-].O=C1CC2OCC=C3CN4CCC56c7ccccc7N1C5C2C3CC46`: the T/C is 98 % of control [survivor count not shown] (dose: 0.78 mg/kg/injection, schedule: Q01DX009 (ip), vehicle: Klucel (hydroxypropylcellulose) (HPC)); 96 % of control [survivor count not shown] (dose: 1.56 mg/kg/injection, schedule: Q01DX009 (ip), vehicle: Klucel (hydroxypropylcellulose) (HPC)); 113 % of control [survivor count not shown] (dose: 1.56 mg/kg/injection, schedule: Q04DX003 (ip), vehicle: Klucel (hydroxypropylcellulose) (HPC)); 91 % of control [survivor count not shown] (dose: 3.12 mg/kg/injection, schedule: Q01DX009 (ip), vehicle: Klucel (hydroxypropylcellulose) (HPC)); 95 % of control [survivor count not shown] (dose: 3.12 mg/kg/injection, schedule: Q04DX003 (ip), vehicle: Klucel (hydroxypropylcellulose) (HPC)).

`NNS(=O)(=O)c1ccc(N(CCCl)CCCl)cc1`: the T/C by setting is: (dose: 100.0 mg/kg/injection, schedule: Q01DX001 (ip), vehicle: other) 111 % of control; (dose: 200.0 mg/kg/injection, schedule: Q01DX001 (ip), vehicle: other) 92 % of control; (dose: 400.0 mg/kg/injection, schedule: Q01DX001 (ip), vehicle: other) 101 % of control.

On to `NP(=O)(N(CCCl)CCCl)N1CC1` (stereo not drawn), for which the T/C by setting is: (dose: 2.5 mg/kg/injection, schedule: Q01DX Z (ip), vehicle: water) 119 % of control; (dose: 5.0 mg/kg/injection, schedule: Q01DX Z (ip), vehicle: water) 128 % of control; (dose: 6.25 mg/kg/injection, schedule: Q01DX009 (ip), vehicle: saline) 127 % of control; (dose: 10.0 mg/kg/injection, schedule: Q01DX Z (ip), vehicle: water) 171 % of control; (dose: 12.5 mg/kg/injection, schedule: Q01DX009 (ip), vehicle: saline) 155 % of control [5 of 6 alive]; (dose: 20.0 mg/kg/injection, schedule: Q01DX Z (ip), vehicle: water) 133 % of control. Further, the T/C is, setting by setting: (dose: 25.0 mg/kg/injection, schedule: Q01DX001 (ip), vehicle: saline) 120 % of control; (dose: 25.0 mg/kg/injection, schedule: Q01DX009 (ip), vehicle: saline) 247 % of control; under setting [4], 152 % of control; under setting [6], 141 % of control; under setting [5], 205 % of control. The survivor count reads like this: (dose: 50.0 mg/kg/injection, schedule: Q01DX009 (ip), vehicle: saline) 6 of 6; (dose: 80.0 mg/kg/injection, schedule: Q01DX006 (ip), vehicle: water) 4 of 6; under setting [7], 4 of 6; (dose: 100.0 mg/kg/injection, schedule: Q01DX009 (ip), vehicle: saline) 5 of 6; under setting [8], 6 of 6; (dose: 160.0 mg/kg/injection, schedule: Q01DX006 (ip), vehicle: water) 1 of 6. Besides, the survivor count is, setting by setting: under setting [9], 0 of 6; (dose: 200.0 mg/kg/injection, schedule: Q04DX003 (ip), vehicle: saline) 0 of 6; under setting [10], 0 of 6; (dose: 400.0 mg/kg/injection, schedule: Q04DX003 (ip), vehicle: saline) 0 of 6.

Turning to `COP(=O)(OC)N(CCCl)CCCl`, the T/C runs as follows: (dose: 22.0 mg/kg/injection, schedule: Q04DX003 (ip), vehicle: saline) 109 % of control; (dose: 30.0 mg/kg/injection, schedule: Q04DX003 (ip), vehicle: saline) 101 % of control; (dose: 33.0 mg/kg/injection, schedule: Q04DX003 (ip), vehicle: saline) 118 % of control; under setting [5], 129 % of control; (dose: 60.0 mg/kg/injection, schedule: Q04DX003 (ip), vehicle: saline) 112 % of control; (dose: 66.0 mg/kg/injection, schedule: Q04DX003 (ip), vehicle: saline) 120 % of control. In addition, the T/C (dose: 75.0 mg/kg/injection, schedule: Q01DX001 (ip), vehicle: saline) is 116 % of control; the T/C under setting [8] is 158 % of control; the T/C (dose: 120.0 mg/kg/injection, schedule: Q04DX003 (ip), vehicle: saline) is 149 % of control; the T/C (dose: 150.0 mg/kg/injection, schedule: Q01DX001 (ip), vehicle: saline) was 132 % of control; the T/C (dose: 150.0 mg/kg/injection, schedule: Q04DX003 (ip), vehicle: saline) was 168 % of control. The survivor count (dose: 300.0 mg/kg/injection, schedule: Q01DX001 (ip), vehicle: saline) is listed as 2 of 6.

For the molecule `ClCCN(Cc1ccccc1)CC1COCO1` (stereo not drawn), the T/C runs as follows: under setting [6], 96 % of control; under setting [7], 93 % of control; under setting [9], 100 % of control; under setting [10], 100 % of control.
